Drawing on article PMC7819943, “Rice protein-binding microarrays: a tool to detect cis-acting elements near promoter regions in rice”, this text covers binding signal for 42 sequences.

Amino acid sequences for entries named in this document (tags omitted).
UniProt Q0JBA9, entry or part of it: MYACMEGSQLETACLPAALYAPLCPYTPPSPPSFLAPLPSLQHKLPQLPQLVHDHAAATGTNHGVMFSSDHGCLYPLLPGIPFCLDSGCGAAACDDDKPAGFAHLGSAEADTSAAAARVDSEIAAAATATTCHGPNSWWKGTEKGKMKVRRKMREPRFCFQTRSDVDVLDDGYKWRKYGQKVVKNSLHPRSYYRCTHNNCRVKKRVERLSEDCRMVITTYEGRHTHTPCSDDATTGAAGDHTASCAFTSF

The list shows a part of the results.

The experiment deals with OsWRKY34 (Oryza sativa, UniProt Q0JBA9 1-250). As to the kind of experiment: protein-binding microarray (RPBM); PBS, 2% BSA, 51.3 ng/ul salmon testes DNA, 50 uM zinc acetate, 200 nM TF, 25 C, 1 h; high values mean tight binding. To be noted: protein: recombinant; tags: N-terminal polyhistidine and DsRed monomer fusion (pET32a); label: CyDye5-dUTP incorporated in the synthesized complementary strand; 3' TTTTT single-stranded linker to array surface; dsDNA, one strand shown. The gist of the method: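 Transcription factors were each fused at the N-terminus to a polyhistidine tag plus DsRed and expressed in E. coli BL21-CodonPlus before Ni–NTA purification. Binding to a double-stranded custom Agilent array was carried out with 200 nM protein at 25 °C for 1 h in PBS, 2% BSA, salmon testes DNA and 50 µM zinc acetate. The binding signal is per-feature fluorescence intensity, in arbitrary units, on an Axon 4000B scanner.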
“ACCTCGAATGAAATATTTTCTTTTTGTGATTTTTGTCGGTCGGAGTCACCTAGTGCAG”: the binding signal is 9330 fluorescence intensity (a.u.).

Consider “CCCGCCGCCGAATCATCGCCGTCGTTCCTCTGCCTCGTGGCGGAGTCACCTAGTGCAG”, for which the binding signal was 9420 fluorescence intensity (a.u.).

For “ACCTGTCAGCGCCCACAACTGCTCGCTCCGTCCTCCAAAGCGGAGTCACCTAGTGCAG”, the binding signal is 12400 fluorescence intensity (a.u.).

As for “AAATTCTTTGCTTTGTTGTTTTCTCAACATCTTATTGCTTCGGAGTCACCTAGTGCAG”, the binding signal is 9090 fluorescence intensity (a.u.).

Regarding “AACATCGCACAGTCAGTCACACACCCACACACCGGCGAGCCGGAGTCACCTAGTGCAG”, the binding signal is 9250 fluorescence intensity (a.u.).

“ACATTTCCAGTTTCCACATTCGTCCTTCCGCTTACGCCGACGGAGTCACCTAGTGCAG”: the binding signal is 9330 fluorescence intensity (a.u.).

On to “CCCTAACTACGGCGAACCCAGCACACGGGATTGTTACCTTCGGAGTCACCTAGTGCAG”, for which the binding signal is 8210 fluorescence intensity (a.u.).

As to “TTCTTACTCAGGTTTCCTAACTTATCTCTCTCGTTTTCCACGGAGTCACCTAGTGCAG”, the binding signal was 8340 fluorescence intensity (a.u.).

Consider “GCAACCCACACCTTCTAGGCTTCCACATATTTTCGGAAGTCGGAGTCACCTAGTGCAG”, for which the binding signal was 9220 fluorescence intensity (a.u.).

For the sequence “GCGCATTGGGGCGGGAAGGACGAGGAGGAGGTGGTGGCCGCGGAGTCACCTAGTGCAG”, the binding signal is 8130 fluorescence intensity (a.u.).

In the case of “CGTCATTCGTCCTCCTCCACCATCCCTACTTTCCTAATGACGGAGTCACCTAGTGCAG”, the binding signal was 8770 fluorescence intensity (a.u.).

For “TCTTTTGTTGTCACACGCAGATTCAATTTATTTTCAATTTCGGAGTCACCTAGTGCAG”, the binding signal was 8670 fluorescence intensity (a.u.).

For “ATTATACGTTAATGGCTTTCTCGTTTTGTATACGCTGATTCGGAGTCACCTAGTGCAG”, the binding signal is 9600 fluorescence intensity (a.u.).

Regarding “GTGTTTTTTGTGTGTGTGTGTTATGGTATGGTCAGTTCCTCGGAGTCACCTAGTGCAG”, the binding signal was 9240 fluorescence intensity (a.u.).

“CGCCATTGCCGTCGCCGTCGGGCTCAGTCTCAGTCATTGCCGGAGTCACCTAGTGCAG”: the binding signal was 8510 fluorescence intensity (a.u.).

For “GTATGTGTGGAGGAGGGGTATAGAATCTGTATTGGCTAACCGGAGTCACCTAGTGCAG”, the binding signal is 8780 fluorescence intensity (a.u.).

On to “GATTTGGACTTGTGTAGTTGTGTTGAGTGAAATCTTCCATCGGAGTCACCTAGTGCAG”, for which the binding signal was 8100 fluorescence intensity (a.u.).

For “GGTAGTTTAAAGTCTGTGTGCAAATACATTTTGTTAAATTCGGAGTCACCTAGTGCAG”, the binding signal was 8280 fluorescence intensity (a.u.).

Regarding “ACGGTAATGCTATCCAACCAATCAACATTTAGTTCCCATACGGAGTCACCTAGTGCAG”, the binding signal is 8290 fluorescence intensity (a.u.).

As for “TAAAAATATGTTTTTTTCTCGTGTTGTGTCGGGTGGTATGCGGAGTCACCTAGTGCAG”, the binding signal is 10600 fluorescence intensity (a.u.).

For “TCGAGAAGGACGTCGTTGTCGCGCGCCTCACCTTTGCCGACGGAGTCACCTAGTGCAG”, the binding signal is 9290 fluorescence intensity (a.u.).

For the sequence “TGCATTATCGGCTGTGTTTAGTTCAGCGCAAAGTTTGGATCGGAGTCACCTAGTGCAG”, the binding signal is 8060 fluorescence intensity (a.u.).

With “ACAACCATTCTCTTCGTCTACTTTCTCTTCTCCACCAATCCGGAGTCACCTAGTGCAG”, the binding signal is 10500 fluorescence intensity (a.u.).

In the case of “GCCAGCAAGGCAGCAACATATCCTTGCATTTTCCTCCTCACGGAGTCACCTAGTGCAG”, the binding signal was 8510 fluorescence intensity (a.u.).

As to “GCTCCGCCTGCCAGATCCATATGAGCCACCTGCGCCGCTACGGAGTCACCTAGTGCAG”, the binding signal is 8720 fluorescence intensity (a.u.).

Turning to “CTTCTTCGTCTCATCCAACCCAAGTACCCAACCCGCGTCGCGGAGTCACCTAGTGCAG”, the binding signal was 10300 fluorescence intensity (a.u.).

“GTGTGGTCCAGTTCGTTCCCTGCAGATCCATGGCCGCGCCCGGAGTCACCTAGTGCAG”: the binding signal is 8550 fluorescence intensity (a.u.).

With “ACTTGAAGCAATTTGACTTTGACTAAAGTCAAAAAACGTCCGGAGTCACCTAGTGCAG”, the binding signal is 10300 fluorescence intensity (a.u.).

With “GGCAGTGGAGTGGGGTGGCGTTATGCTGTGTCACGTGGAACGGAGTCACCTAGTGCAG”, the binding signal was 8300 fluorescence intensity (a.u.).

Take “CCGTCGCCATAGCCGGACTCCGCGTGAGTTCTCCTCCCCGCGGAGTCACCTAGTGCAG”: the binding signal is 8250 fluorescence intensity (a.u.).

With “CCGTGTTTGAGGTTCGTCATCCGTATTTGAAGTCGGTTTTCGGAGTCACCTAGTGCAG”, the binding signal is 10500 fluorescence intensity (a.u.).

In the case of “TTATGCATGGCTTTGGCTTGGTTTGGTTTGGTTTGAAGAGCGGAGTCACCTAGTGCAG”, the binding signal was 11100 fluorescence intensity (a.u.).

On to “TATCAGTGGAGAGCTCGATATTCGGAGGGGTTGGCAGCGACGGAGTCACCTAGTGCAG”, for which the binding signal is 8780 fluorescence intensity (a.u.).

With “GACCTATTATACATATCACCTCTTAATTTAATTATCTATGCGGAGTCACCTAGTGCAG”, the binding signal is 10100 fluorescence intensity (a.u.).

Consider “GGGTATGTTTGGGGAGCTTCTAACTTCTGCAGCTTCTCCCCGGAGTCACCTAGTGCAG”, for which the binding signal is 10500 fluorescence intensity (a.u.).

For “CACTGTGAATGCACTTGGTCAAACTGATTCCACTCGGTCCCGGAGTCACCTAGTGCAG”, the binding signal was 8880 fluorescence intensity (a.u.).

Turning to “GAGCATCACAAGTCGCGACCTCACAGGGAGGGGCGGCGGCCGGAGTCACCTAGTGCAG”, the binding signal is 9060 fluorescence intensity (a.u.).

Regarding “ATAGTAATCCTGGAGTCCTGGACGCCCCAAATAATTAACTCGGAGTCACCTAGTGCAG”, the binding signal is 9790 fluorescence intensity (a.u.).

For the sequence “TTGTCATTCTGCATCTCCAATCTATTCTTATGCACTGAGTCGGAGTCACCTAGTGCAG”, the binding signal was 8880 fluorescence intensity (a.u.).

Turning to “GAGTACCTCTCGTTGTCTCCTCCGCTCCTTGCCTCCTTGCCGGAGTCACCTAGTGCAG”, the binding signal was 8350 fluorescence intensity (a.u.).

As for “TTTTTCGTTCATGTGCTATCTTGTTCTTCACAAGTGCTTGCGGAGTCACCTAGTGCAG”, the binding signal is 8620 fluorescence intensity (a.u.).

For “CCGGGTCAACTTGCCACATCAGTGAATCCAGACATCTACACGGAGTCACCTAGTGCAG”, the binding signal is 8180 fluorescence intensity (a.u.).
